No constants are given. Whether binding was seen depends on the method and setting. In cells and extracts the contact can be indirect. Some entries that bind do so weakly or less than the wild type. For part of these data: Where a sequence is shown, tags or fusion partners need not be part of it.
What was measured:
Experiment in all cases: co-IP; anti-FLAG M2 agarose IP from NP-40 lysates of HEK293T cells overexpressing 2× FLAG-tagged protein; cells treated with 5 μM MLN4924 for 6 hours; immunoblot
[1] = molecular target: T1, FLAG-tagged SENP7 (full length) (human) (UniProt Q9BQF6)
T1 sequence: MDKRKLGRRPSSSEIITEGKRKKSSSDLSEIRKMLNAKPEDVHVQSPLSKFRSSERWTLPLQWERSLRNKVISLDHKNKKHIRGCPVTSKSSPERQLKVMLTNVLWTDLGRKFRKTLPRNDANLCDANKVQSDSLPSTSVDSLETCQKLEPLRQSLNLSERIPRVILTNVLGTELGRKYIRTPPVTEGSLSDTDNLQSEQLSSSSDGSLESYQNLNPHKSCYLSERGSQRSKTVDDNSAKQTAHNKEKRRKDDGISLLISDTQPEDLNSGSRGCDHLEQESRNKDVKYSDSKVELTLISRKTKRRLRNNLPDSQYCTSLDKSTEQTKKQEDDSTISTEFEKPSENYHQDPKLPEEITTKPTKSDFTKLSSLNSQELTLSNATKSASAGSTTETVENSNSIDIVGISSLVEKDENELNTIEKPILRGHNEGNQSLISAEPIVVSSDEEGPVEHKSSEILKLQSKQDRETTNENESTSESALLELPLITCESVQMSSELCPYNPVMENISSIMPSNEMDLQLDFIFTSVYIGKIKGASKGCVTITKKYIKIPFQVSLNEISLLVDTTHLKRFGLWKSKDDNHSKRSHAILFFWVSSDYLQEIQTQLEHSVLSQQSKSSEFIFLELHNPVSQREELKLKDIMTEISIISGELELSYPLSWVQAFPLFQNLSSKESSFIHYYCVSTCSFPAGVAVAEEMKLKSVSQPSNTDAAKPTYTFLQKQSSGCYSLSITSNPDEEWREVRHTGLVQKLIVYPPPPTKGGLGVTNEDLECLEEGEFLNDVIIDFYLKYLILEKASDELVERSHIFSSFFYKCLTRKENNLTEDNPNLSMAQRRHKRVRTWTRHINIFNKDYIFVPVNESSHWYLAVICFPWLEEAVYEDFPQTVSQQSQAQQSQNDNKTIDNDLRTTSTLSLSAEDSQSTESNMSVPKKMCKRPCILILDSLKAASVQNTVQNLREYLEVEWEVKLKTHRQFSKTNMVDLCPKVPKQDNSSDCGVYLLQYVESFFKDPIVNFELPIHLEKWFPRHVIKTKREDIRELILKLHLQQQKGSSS

Amino acid sequences for entries named in this document (tags omitted).
UniProt Q9Y6Q9: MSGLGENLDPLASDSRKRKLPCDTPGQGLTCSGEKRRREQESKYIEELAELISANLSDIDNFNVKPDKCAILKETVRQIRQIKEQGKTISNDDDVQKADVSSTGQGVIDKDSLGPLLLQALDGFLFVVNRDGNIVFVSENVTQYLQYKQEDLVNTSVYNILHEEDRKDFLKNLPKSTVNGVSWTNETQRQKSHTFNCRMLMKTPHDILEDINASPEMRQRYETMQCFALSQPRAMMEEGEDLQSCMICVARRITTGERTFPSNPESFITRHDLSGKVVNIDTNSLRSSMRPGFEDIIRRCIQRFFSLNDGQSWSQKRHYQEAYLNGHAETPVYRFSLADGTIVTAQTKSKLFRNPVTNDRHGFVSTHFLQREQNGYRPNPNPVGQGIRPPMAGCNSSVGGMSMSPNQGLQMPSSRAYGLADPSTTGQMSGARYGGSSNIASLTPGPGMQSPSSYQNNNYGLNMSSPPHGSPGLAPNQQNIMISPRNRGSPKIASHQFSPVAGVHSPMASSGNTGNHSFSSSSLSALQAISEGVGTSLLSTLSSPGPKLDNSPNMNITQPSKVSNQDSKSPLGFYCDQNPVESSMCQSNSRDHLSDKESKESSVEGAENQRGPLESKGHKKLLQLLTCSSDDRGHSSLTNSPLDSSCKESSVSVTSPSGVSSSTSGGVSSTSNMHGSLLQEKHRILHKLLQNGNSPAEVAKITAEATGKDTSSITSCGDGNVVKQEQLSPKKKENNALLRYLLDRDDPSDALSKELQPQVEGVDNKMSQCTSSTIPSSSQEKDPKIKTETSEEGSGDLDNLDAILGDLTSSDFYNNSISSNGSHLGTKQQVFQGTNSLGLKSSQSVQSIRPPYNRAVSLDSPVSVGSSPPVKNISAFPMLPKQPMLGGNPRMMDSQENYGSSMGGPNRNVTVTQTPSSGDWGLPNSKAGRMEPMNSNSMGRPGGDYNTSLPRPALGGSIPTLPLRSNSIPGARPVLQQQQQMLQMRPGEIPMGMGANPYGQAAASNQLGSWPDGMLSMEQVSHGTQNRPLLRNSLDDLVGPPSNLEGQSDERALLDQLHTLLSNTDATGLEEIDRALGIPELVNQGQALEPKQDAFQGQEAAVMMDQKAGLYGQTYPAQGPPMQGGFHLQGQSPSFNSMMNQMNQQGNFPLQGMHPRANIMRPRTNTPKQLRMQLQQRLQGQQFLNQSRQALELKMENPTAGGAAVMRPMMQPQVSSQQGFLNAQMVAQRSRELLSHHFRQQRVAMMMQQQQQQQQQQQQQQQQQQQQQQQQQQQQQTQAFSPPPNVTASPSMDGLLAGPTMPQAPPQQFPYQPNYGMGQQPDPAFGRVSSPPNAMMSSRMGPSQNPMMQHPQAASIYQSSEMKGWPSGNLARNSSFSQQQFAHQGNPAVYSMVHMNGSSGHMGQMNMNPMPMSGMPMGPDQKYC
UniProt O43791: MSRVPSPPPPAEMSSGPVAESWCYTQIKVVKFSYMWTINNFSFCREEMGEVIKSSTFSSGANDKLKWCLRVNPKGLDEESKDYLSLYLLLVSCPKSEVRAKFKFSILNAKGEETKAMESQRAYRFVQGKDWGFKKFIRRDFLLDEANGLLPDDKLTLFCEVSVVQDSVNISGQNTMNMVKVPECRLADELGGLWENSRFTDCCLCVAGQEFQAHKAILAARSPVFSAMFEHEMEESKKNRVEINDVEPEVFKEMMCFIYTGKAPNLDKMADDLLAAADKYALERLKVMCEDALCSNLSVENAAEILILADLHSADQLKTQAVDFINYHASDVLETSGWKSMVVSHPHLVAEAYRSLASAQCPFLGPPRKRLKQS

[2] = molecular target: T2, FLAG-tagged Caprin1 (full length) (human) (UniProt Q14444)
T2 sequence: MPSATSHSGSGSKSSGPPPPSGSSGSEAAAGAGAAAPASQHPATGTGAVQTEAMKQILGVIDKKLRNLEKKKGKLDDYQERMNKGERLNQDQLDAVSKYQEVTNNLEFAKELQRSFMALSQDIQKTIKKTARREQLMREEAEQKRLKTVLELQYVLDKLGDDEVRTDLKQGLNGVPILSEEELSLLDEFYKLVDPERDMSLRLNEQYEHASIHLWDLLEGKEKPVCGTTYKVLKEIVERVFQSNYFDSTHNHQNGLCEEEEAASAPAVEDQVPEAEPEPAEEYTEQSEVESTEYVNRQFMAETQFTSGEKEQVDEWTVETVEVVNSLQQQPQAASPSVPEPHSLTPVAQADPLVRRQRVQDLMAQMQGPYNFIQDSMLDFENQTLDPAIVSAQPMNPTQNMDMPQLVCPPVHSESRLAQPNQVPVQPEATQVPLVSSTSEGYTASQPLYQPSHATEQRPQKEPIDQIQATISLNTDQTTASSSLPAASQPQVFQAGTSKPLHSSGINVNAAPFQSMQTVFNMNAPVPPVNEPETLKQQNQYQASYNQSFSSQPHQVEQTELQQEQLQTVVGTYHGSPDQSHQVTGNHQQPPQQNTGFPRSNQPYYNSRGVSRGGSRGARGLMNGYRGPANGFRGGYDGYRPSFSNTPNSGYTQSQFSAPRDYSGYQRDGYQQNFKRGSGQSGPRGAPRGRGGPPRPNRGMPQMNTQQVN

[3] = molecular target: FLAG-tagged SRC-3 (NCOA3, full length) (human) (UniProt Q9Y6Q9)

binding [1]: binds | binding [2]: binds | binding [3]: binds
Substance: endogenous SPOP (speckle-type BTB/POZ protein) (from UniProt O43791 1-374)

Source: article PMC7618200 (The Biochemical journal, 2025)
